Measured values as given in patent US20080311103A1, “Anti-Inflammatory Peptides and Methods of Use Thereof” (YEDA RESEARCH AND DEVELOPMENT CO. LTD. at THE WEIZMANN …, priority 2004, published 2008).
Part of at least one peptide drawing is inferred or uncertain, most often the ends. Some entries share one result that the patent states for a list of compounds. Ends that are not written are not given here.

Experiments:
BALB/C mice [1] = test: Con A-induced hepatic injury (acute hepatitis model); assay type: in vivo, mouse
Method: Con A (13 mg/kg) was administered i.v. to BALB/c mice 18 hours before analysis (Bonder, C. S. et al. 2004. J. Immunol. 172: 45-53). Mice were intraperitoneally injected with the peptides of the invention 48 and 2 hours before ConA injection.
Blood analysis: 18 hours after Con A injection, blood was obtained by cardiac puncture for detection of serum alanine aminotransferase (ALT) and aspartate aminotransferase (AST). The presence of these two enzymes in serum is used as an index of hepatocellular injury. The detection of ALT and AST was performed by a commercial kit for ALT and AST (Bayer Diagnostics, Tarry town, NY, USA) using an automated Monarch Monoanalyzer 2000 (Allied, Lexington, Mass.).

T cells [2] = test: PMA-induced T cell adhesion to immobilized fibronectin; assay type: cell-based; conditions: peptide 100 ng/ml, 30 min pre-incubation; PMA 50 ng/ml
T cells [3] = test: Chemotaxis assay: T cell migration toward SDF-1α; assay type: cell-based; conditions: concentration range 10-1000 ng/ml; SDF-1α 250 ng/ml; 3 hr
Method: The migration of ^51-[Cr]-labeled T cells was examined in […] Transwell chemotaxis apparatus (6.5-mm diameter; Corning, N.Y.), consisting of two compartments separated by polycarbonate filters (5 μm pore size) pretreated (1 hr, 37° C.) with FN (25 μg/ml). ^51-[Cr]-labeled T cells (2×10^5 in 100 μl of RPMI containing 0.1% BSA and antibiotics), which were pre-incubated with the indicated concentrations of peptides (30 min, 37° C.), were added to the upper chambers. The bottom chambers contained 0.6 ml of the same media, with or without human Stromal cell-Derived Factor-1α (SDF-1α; 250 ng/ml). After incubation at 37° C. for 3 hr (7.5% CO2-humidified atmosphere), cells that had transmigrated into the lower wells were collected, centrifuged, and lysed (in 100 μl of distilled water containing 1 M NaOH and 0.1% Triton X-100), and the radioactivity in the resulting supernatants was determined with a γ-counter. The percentage (±SD) of cell migration was calculated as the radioactivity counts in the lysates of the lower chambers (representative of the migrating cells) divided by the total counts (representative of 2×10^5 cells).

BALB/C mice [4] = test: TNBS-induced colitis model of inflammatory bowel disease (IBD); assay type: in vivo, mouse; conditions: day 7 after TNBS
Method: BALB/C mice, which were anesthetized for 5-10 min, received by intrarectal administration, 30 μl of a solution of 2,4,6-trinitrobenzene sulfonic acid (TNBS; 100 mg/kg) dissolved in 0.9% NaCl and mixed with an equal volume of ethanol (50% ethanol). Animals were killed 7 days after TNBS administration.
Wound fluid peptides were administered once daily by subcutaneous (SC) administration starting 1 day before the induction of colitis and every day for the next 7 days as follows:
Treatment with the wound fluid peptides was evaluated at day 7 by determination of macroscopic inflammation scores. The colon of each mouse was examined under a dissecting microscope to evaluate the macroscopic lesions according to the Wallace criteria. The Wallace score lists macroscopic colon lesions on a scale from 0 to 10 based on features reflecting inflammation, such as hyperemia, thickening of the bowel, and extent of ulceration (Wallace, J. L., et al. 1989, Gastroenterology, 96:29).

[5] = test system: anti-CD3 antibody induced IFNγ secretion from T cells; test: IFNγ secretion by anti-CD3 activated T cells; assay type: cell-based, human; design: concentration or dose not given beside the values; conditions: 24 hours; ELISA; FIG. 7B
Method: (§1) Human T cells were purified and maintained in culture (RPMI containing 10% FCS, 1% Pyruvate, 1% glutamine, 1% antibiotics, 7.5% CO2, humidified atmosphere) for 15 hr before they were transferred to RPMI and activated (2 hr, 37° C.) with the indicated concentrations of the peptides. The cells were then plated (1.5×10^6 cells/0.5 ml/well) in 24 wells plates (non-tissue culture grade) precoated with anti-CD3 mAb in order to stimulate the cells to secrete cytokines. After 24 hours, the supernatants were collected and their cytokine content (TNFα and IFNγ) was determined by ELISA using anti-IFNγ and anti TNFα mAb (Pharmingen; San Diego, Calif.) according to the manufacturer's instructions.

[6] = test system: lymph node cells of oxazalone-sensitized mice transferred to syngeneic recipient mice; test: Adoptive transfer DTH assay; assay type: in vivo, mouse; conditions: lymph node cells incubated 20 hours with peptide (10 rig/ml), injected i.v. to recipient mice; ear swelling after 24 hours
Method: Female inbred BALB/c mice (The Jackson Laboratory, Bar Harbor, Me.) were sensitized on the shaved abdominal skin with 2% oxazalone (100 μl) dissolved in acetone/olive oil [4:1 (vol/vol)]. Two donor mice were sensitized for one recipient mouse. On day 5, lymph nodes were removed and single-cell suspensions of lymph node cells were prepared. Lymph node cells were incubated (20 hours) with either peptide No. 3 or peptide No. 5 (10 rig/ml) in RPMI 1640 containing 10% FCS. After the incubation, the cells were washed, resuspended with PBS and injected intravenously (40 million cells per mouse) to syngeneic recipient mice. The mice were immediately challenged with 0.5% oxazalone in acetone/olive oil (10 μl given topically to each side of the ear) to elicit DTH reactions. The increment of ear swelling was measured after 24 hours.

Jurkat and THP-1 cells = test: TNFα secretion by PMA/PHA induced Jurkat and THP-1 cells; assay type: cell-based, human; conditions: concentration range 1-1000 ng/ml; 48 hours; ELISA
Method: Jurkat cells human T cell lymphoma line) (2×10^6 cells/ml) cultured in RPMI-1640 supplemented with 10% FCS were activated with PMA (50 ng/ml) and phytohaemagglutinin PHA (4 µg/ml) for 6 hours at 37° C. (7.5% CO2-humidified atmosphere). Thereafter, the cells were washed, plated on 24-well plates (10^6 cells/well in 0.5 ml), and incubated (1 hour at 37° C., 7.5% CO2-humidified atmosphere) with the indicated concentrations of peptides 1-5. Following the incubation, THP-1 cells (human monocytic cell line derived from a patient with acute monocytic leukaemia; 1.25×10^5 cells/0.5 ml/well) were added to the wells. After 48 hours, the supernatants were collected and their TNF[…] content was determined by ELISA using anti TNF[…] mAb (Pharmingen; San Diego, Calif.) according to the manufacturer's instructions.

[7] = test system: anti-CD3 antibody induced TNFα secretion from T cells; test: TNFα secretion by anti-CD3 activated T cells; assay type: cell-based, human; conditions: peptide 100 ng/ml; 24 hours; ELISA; FIG. 7A
Method: as §1

NF-κB = test: Nuclear translocation of NF-κB in T cells (Western blot); assay type: cell-based; conditions: peptide 100 ng/ml for 2 hours, then anti-CD3 mAb 24 hr; human T cells
Text: To address the modulatory role of the wound fluid peptides on the signal transduction cascade leading to regulation of T-cell secretion of TNF-α(and IFN-γ, the nuclear translocation of NF-κB was detected by probing nuclear and cytoplasmic T-cell extracts using mAb specific for the p65 subunit of NF-κB. The nuclear protein Lamin B was used as continuatively expressed control protein for the quantification of protein amounts.
Human T cells. T cells were purified from the peripheral blood of healthy human donors (Blood Bank; Tel-Hashomer, Israel). The whole blood was incubated (20 min, 22° C.) with RosetteSep™ human T-cell enrichment cocktail (StemCell Technologies, Vancouver, BC, Canada). The remaining unsedimented cells were then loaded onto Lymphocyte Separation Medium (ICN Biomedicals; Belgium), isolated by density centrifugation, and washed with PBS. The purified cells (>95% CD3^+ T cells) so obtained were cultured in RPMI containing antibiotics and 10% heat-inactivated FCS. Western blot analysis of T-cell nuclear extracts. Purified T cells (5×10^6) were preincubated with the peptides (100 ng/ml) for 2 hours (37° C. in a 7% CO2, humidified atmosphere). […] The lysates were cleared by centrifugation (30 min, 14×10^3 rpm, 4° C.), and the resulting supernatants analyzed for protein content. […]

[8] = 50 μg/mouse intraperitoneally 48 and 2 hours before ConA, blood 18 hours after Con A, FIG. 10A

Substance: NPDESSKPNMI [peptide No. 5, NPDESSKPNMI]
- concentration of ALT in serum, lower than that of untreated mice (BALB/C mice [1]; [8]): ~50%
- concentration of AST in serum, lower than that of untreated mice (BALB/C mice [1]; [8]): ~50%
- resistance to ConA induced hepatitis (BALB/C mice [1]; 50 μg/mouse intraperitoneally, 2 or 3 injections before ConA, especially after 3 treatments, FIG. 10B): marked resistance
- inhibition of PMA-induced T cell adhesion to FN (T cells [2]): 20%
- inhibition of T cell transmigration toward SDF-1α (T cells [3]): did not show a significant inhibition
- Wallace score (macroscopic inflammation score, scale 0 to 10) (BALB/C mice [4]; 10 μg/mouse SC daily): 3.0±0.9
- Wallace score (macroscopic inflammation score, scale 0 to 10) (BALB/C mice [4]; 50 μg/mouse SC daily): 2.3 ± 0.8
- inhibition of anti-CD3 antibody induced IFNγ secretion from T cells [5]: 60%
- inhibition of adoptive transfer DTH response [6]: did not exhibit a significant inhibition
- inhibition of TNFα secretion by Jurkat and THP-1 cells (Jurkat and THP-1 cells): did not exert a significant inhibition
- inhibition of anti-CD3 antibody induced TNFα secretion from T cells [7]: 85%
- NF-κB translocation to the nucleus (NF-κB): significant down-regulation

Substance: MIESSMN [compound 1, residues 827-833 of LRP5; identified in wound fluids, then synthesized]
- inhibition of PMA-induced T cell adhesion to FN (T cells [2]): up to 10%

Substance: WDNLEKETEGL [peptide No. 3, residues 96-106 of Apo A-I; identified in wound fluids, then synthesized]
- inhibition of PMA-induced T cell adhesion to FN (T cells [2]): 45-50%

Substance: TDYGKDLMEKV [peptide No. 4, residues 42-52 of Apo A-II; identified in wound fluids, then synthesized]
- inhibition of PMA-induced T cell adhesion to FN (T cells [2]): up to 10%

Substance: LSALEEYTKKLNTQ [peptide No. 2, residues 254-267 of Apo A-I; identified in wound fluids, then synthesized]
- inhibition of PMA-induced T cell adhesion to FN (T cells [2]): 45-50%
